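Vaccinia-infected cells with a two-color viral stage reporter; Venus fluorescence read on a plate reader; the cell line is not named here; timing not stated here. The test concentration is not given here. Percent change in Venus reporter signal; lower (more negative) values mean stronger inhibition of that viral stage.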

Values are in %. How 0% and 100% were set is not given here. Common to all entries: measured here: Venus reporter, other viral stage. Part of the compounds only, not a random draw; the main read-out is not listed here.

compound	activity change (Venus) (%)
COc1ccccc1-c1ccc2c(c1)[C@H]1[C@H](CCN1C(=O)C1CCC1)[C@H](CO)N2	-36.39
C[C@@H]1CCCCO[C@H](CN(C)C(=O)NC2CCCCC2)[C@H](C)CN([C@@H](C)CO)C(=O)c2cc(NS(=O)(=O)c3ccc(F)cc3)ccc2O1	-39.64
CN1c2ccc(C3=CCCCC3)cc2[C@@H]2[C@@H](CCN2C(=O)C2CCC2)[C@@H]1CO	-42.19
COc1cccc(NC(=O)N(C)C[C@H]2Oc3cc(C#Cc4ccncc4)ccc3S(=O)(=O)N([C@H](C)CO)C[C@@H]2C)c1	-74.09
COc1ccc(S(=O)(=O)Nc2ccc3c(c2)C(=O)N([C@@H](C)CO)C[C@@H](C)[C@H](CN(C)Cc2ccc(C(F)(F)F)cc2)OCCCC[C@H](C)O3)cc1	-88.73
COc1ccccc1C#Cc1ccc2c(c1)O[C@H](CN(C)C)[C@H](C)CN([C@H](C)CO)S2(=O)=O	-56.18
C[C@H](CO)N1C[C@H](C)[C@@H](CN(C)S(=O)(=O)c2ccc(Cl)cc2)Oc2ccc(NC(=O)Nc3ccc(C(F)(F)F)cc3)cc2CC1=O	-22.98
COc1ccc(CN(C)C[C@@H]2OCCCC[C@H](C)Oc3ccc(NC(=O)c4ccccc4)cc3C(=O)N([C@H](C)CO)C[C@@H]2C)cc1	-29.3
COc1ccc(C#Cc2ccc([C@@H]3[C@H]4CN(C(=O)Nc5ccccc5F)CCCCN4[C@H]3CO)cc2)cc1	-25.54
O=C(Nc1cccc(F)c1)N1CC(=O)N2[C@H](C1)[C@H](c1ccc(-c3cccc(F)c3)cc1)[C@@H]2CO	-36.11
COc1ccc(S(=O)(=O)Nc2ccc3c(c2)CC(=O)N([C@H](C)CO)C[C@@H](C)[C@H](CN(C)Cc2ccc(Cl)c(Cl)c2)O3)cc1	-37.98
C[C@H](CO)N1C[C@H](C)[C@H](CN(C)C(=O)Nc2cc(F)ccc2F)Oc2cc(C#CC3CCCC3)ccc2S1(=O)=O	-42.03
CCCNC(=O)[C@@]1(Sc2ccc(C)cc2)CC(=O)N(C2CCCCC2)[C@@H]1c1ccc(CO)cc1I	-36.27
C[C@H]1CN([C@@H](C)CO)C(=O)c2c(c3ccccc3n2C)-c2ccccc2CO[C@@H]1CN(C)C(=O)[C@H](Cc1ccccc1)N(C)C	-47.6
COc1cccc(C#Cc2ccc([C@H]3[C@H](CO)N4C(=O)CN(S(=O)(=O)c5ccccc5C)C[C@@H]34)cc2)c1	-46.4
C[C@@H]1CN([C@@H](C)CO)C(=O)Cc2cc(NS(=O)(=O)c3ccc(F)cc3)ccc2O[C@H]1CN(C)Cc1ccc(Oc2ccccc2)cc1	-37.2
O=C(c1ccc(F)cc1)N1CC(=O)N2[C@H](CO)[C@@H](c3ccc(-c4ccccc4F)cc3)[C@H]2C1	-41.94
CN(C)C(=O)[C@]1(CCS(=O)(=O)c2ccccc2)N=C(c2ccc(OCCCO)cc2)O[C@@H]1c1ccccc1	-21
O=C(Nc1ccc(F)cc1)N1CC(=O)N2[C@H](CO)[C@H](c3ccc(-c4ccccc4)cc3)[C@@H]2C1	-34.06
C[C@H]1CN([C@@H](C)CO)C(=O)c2c(c3ccccc3n2C)-c2ccccc2CO[C@@H]1CN(C)Cc1cccc(C(F)(F)F)c1	-71.59
Cc1cccc(S(=O)(=O)N2C[C@@H]3N[C@H](C2)C3c2ccc(-c3ccccc3F)cc2)c1 (some centres not stated)	-73.62
COc1ccc(S(=O)(=O)Nc2ccc3c(c2)CC(=O)N([C@H](C)CO)C[C@H](C)[C@@H](CN(C)Cc2ccc4c(c2)OCO4)O3)cc1	-50.79
C[C@H](CO)N1C[C@H](C)[C@H](CN(C)Cc2ccc(Cl)c(Cl)c2)Oc2c(NC(=O)Nc3ccc(F)cc3)cccc2C1=O	-37.72
O=C(Nc1cccc(F)c1)N1CCCCN2[C@H](CO)[C@H](c3ccc(C#CC4CC4)cc3)[C@@H]2C1	-37.24
COc1cccc(CN2CCC3(CC2)CN(C(=O)C2CC2)[C@H](CO)c2c3c3ccc(OC)cc3n2C)c1	-66.64
C[C@@H]1CCCCO[C@@H](CN(C)Cc2ccccc2)[C@H](C)CN([C@@H](C)CO)C(=O)c2cc(NC(=O)Nc3ccc4c(c3)OCO4)ccc2O1	-35.94
C[C@@H]1CN([C@@H](C)CO)C(=O)c2cc(NC(=O)CCC(F)(F)F)ccc2O[C@@H](C)CCCCO[C@H]1CN(C)Cc1ccc2c(c1)OCO2	-38.37
C[C@@H]1CN([C@@H](C)CO)C(=O)c2cc(NC(=O)Nc3ccc(C(F)(F)F)cc3)ccc2O[C@@H]1CN(C)Cc1ccc(C(F)(F)F)cc1	-63.83
C[C@H]1CCCCO[C@H](CN(C)Cc2ccc3c(c2)OCO3)[C@@H](C)CN([C@@H](C)CO)C(=O)c2cc(NC(=O)CCC(F)(F)F)ccc2O1	-42.55
O=C(C1CCCC1)N1CC[C@@H]2[C@H]1c1cc(-c3cccc(F)c3)ccc1N[C@@H]2CO	-31.17
C=CCN1C(=O)[C@]2(O[C@H](CCO)[C@@H]([Si](C)(C)c3ccc(OC)cc3)[C@@H]2C)c2cc(N3CCOC3=O)ccc21	-45.43
Cc1ccc(S(=O)(=O)N(C)C[C@H]2OCCCC[C@H](C)Oc3ccc(NS(=O)(=O)c4c(C)noc4C)cc3C(=O)N([C@H](C)CO)C[C@@H]2C)cc1	-53.38
C[C@@H]1CN([C@H](C)CO)S(=O)(=O)c2ccc(C#Cc3cccc(F)c3)cc2O[C@@H]1CN(C)C	-46.55
O=C(Nc1ccccc1)N1CCCCN2[C@H](C1)[C@@H](c1ccc(C#Cc3ccccc3)cc1)[C@@H]2CO	-69.13
COc1ccc2c3c(n(C)c2c1)[C@H](CO)N(C(=O)Cc1ccccn1)CC31CN(CC2CCCCC2)C1	-22.82
O=C(c1ccc2c(c1)OCO2)N1CC(=O)N2[C@@H](CO)[C@H](c3ccc(C#CCC4CCCC4)cc3)[C@@H]2C1	-62.82
CC(C)CC#Cc1ccc2c(c1)O[C@H](CN(C)C(=O)C1CCCCC1)[C@H](C)CN([C@H](C)CO)S2(=O)=O	-49.52
C[C@@H]1CCCCO[C@@H](CN(C)S(=O)(=O)c2ccccc2)[C@H](C)CN([C@H](C)CO)C(=O)c2cc(NC(=O)C3CCCCC3)ccc2O1	-26.24
O=C(CC1CC1)N[C@@H]1C[C@@H]2O[C@H](CO)CC[C@@H]2O[C@@H]1CCc1ccc(C#Cc2ccccc2)cc1	-30.27
O=C(C1=C[C@H](c2ccc(C(F)(F)F)cc2)C[C@H](OCCCCO)O1)N1CCN(Cc2ccc3c(c2)OCO3)CC1	-34.03

Data taken from PubChem BioAssay AID1053133, deposited by Broad Institute (2014).